Measured values as given in PubChem BioAssay AID330 (DTP/NCI, 2004).
The list is a part of this screen's results and no random one: it is rich in T/C values a quarter to a half above the control, in often repeated tests (any T/C) and in doses without a T/C. Further doses and runs are listed elsewhere. T/C gives the treated animals as a percentage of the vehicle group. Some entries give survivors of the animals treated and no T/C: the source files T/C as zero there, which appears to mark a toxic dose or a test without result, not a measured value. Some doses without a T/C left all or most animals alive at the check, yet need not have been tolerated: the source hardly ever lists a survival T/C far under the control, and the zero likely stands for such cases as well. Survivors were counted at the toxicity check, usually on the fifth day, unless a day is given; later deaths do not show. Schedules are NCI's codes, read here as Q, the interval in days (D) or hours (H), X, the number of doses. For survival time, this PubChem deposit counts one and a half times the control or more as active, and values a quarter to a half above the control carry no call in these data; other NCI protocols may use other cut-offs.

Test system: P388 leukemia ip, CD2F1 mice, survival T/C
Assay: NCI In Vivo Anticancer Drug Screen. Data for tumor model P388 Leukemia (intraperitoneal) in CD2F1 (CDF1) mice
Conditions: T/C endpoint: median survival time, higher T/C = longer survival
[1] = dose: 240.0 mg/kg/injection, schedule: Q01DX005 (ip), vehicle: saline with Tween-80
[2] = dose: 400.0 mg/kg/injection, schedule: Q04DX003 (ip), vehicle: saline with Tween-80
[3] = dose: 30.0 mg/kg/injection, schedule: Q01DX005 (ip), vehicle: saline with Tween-80
[4] = dose: 60.0 mg/kg/injection, schedule: Q01DX005 (ip), vehicle: saline with Tween-80
[5] = dose: 120.0 mg/kg/injection, schedule: Q01DX005 (ip), vehicle: saline with Tween-80
[6] = dose: 50.0 mg/kg/injection, schedule: Q01DX009 (ip), vehicle: saline with Tween-80
[7] = dose: 100.0 mg/kg/injection, schedule: Q01DX009 (ip), vehicle: saline with Tween-80
[8] = dose: 200.0 mg/kg/injection, schedule: Q01DX009 (ip), vehicle: saline with Tween-80
[9] = dose: 25.0 mg/kg/injection, schedule: Q01DX009 (ip), vehicle: saline with Tween-80
[10] = dose: 400.0 mg/kg/injection, schedule: Q01DX009 (ip), vehicle: saline

NS(=O)(=O)c1ncnc2nc[nH]c12
T/C (dose: 15.0 mg/kg/injection, schedule: Q01DX009 (ip), vehicle: saline with Tween-80): 131 % of control
T/C (dose: 22.5 mg/kg/injection, schedule: Q01DX009 (ip), vehicle: saline with Tween-80): 129 % of control
survivor count (dose: 120.0 mg/kg/injection, schedule: Q01DX009 (ip), vehicle: saline with Tween-80): 2 of 6

O=C(Oc1ccccc1)N1CCCSC1=S
survivor count [1]: 2 of 6

CCOP(=O)(Nc1cc2c(=O)n(C)cnc2cc1Cl)OCC
survivor count [2]: 5 of 6

CC(N=c1cc2n(-c3ccc(Cl)cc3)c3ccccc3nc-2cc1Nc1ccc(Cl)cc1)c1ccccc1 (stereo unspecified)
survivor count (dose: 15.0 mg/kg/injection, schedule: Q01DX005 (ip), vehicle: saline with Tween-80): 6 of 6
survivor count [3]: 6 of 6
survivor count [4]: 6 of 6
survivor count [5]: 6 of 6
survivor count [1]: 6 of 6

CN(C)c1ccc(/C=C\C(=O)c2ccc(C(=O)/C=C/c3ccc(N(C)C)cc3)cc2)cc1
survivor count [6]: 6 of 6
survivor count [7]: 6 of 6
survivor count [8]: 6 of 6

Nc1nc(N)c2cc(CNc3ccc(C(=O)NC(CC(=O)O)C(=O)O)cc3)ccc2n1 (stereo unspecified)
T/C (dose: 0.25 mg/kg/injection, schedule: Q01DX009 (ip), vehicle: saline): 140 % of control
T/C (dose: 0.5 mg/kg/injection, schedule: Q04DX003 (ip), vehicle: saline with Tween-80): 136 % of control
survivor count (dose: 2.0 mg/kg/injection, schedule: Q01DX009 (ip), vehicle: saline): 6 of 6

Cc1nc2sccn2c1C#N
survivor count (dose: 100.0 mg/kg/injection, schedule: Q01DX001 (ip), vehicle: Klucel (hydroxypropylcellulose) (HPC)): 3 of 6
survivor count (dose: 200.0 mg/kg/injection, schedule: Q01DX001 (ip), vehicle: Klucel (hydroxypropylcellulose) (HPC)): 0 of 6
survivor count (dose: 400.0 mg/kg/injection, schedule: Q01DX001 (ip), vehicle: Klucel (hydroxypropylcellulose) (HPC)): 0 of 6

CCCCCCC(O)C/C=C\CCCCCCc1c(C(=O)OC)[nH]c(=S)[nH]c1=O (stereo unspecified)
survivor count [1]: 0 of 6

O=C(O)c1cc([N+](=O)[O-])ccc1Nc1ccccc1
survivor count (dose: 12.5 mg/kg/injection, schedule: Q01DX009 (ip), vehicle: suspension in saline): 6 of 6

COc1ccc(CCNc2ccc(NCCc3ccc(OC)c(OC)c3)c3c2C(=O)c2ccccc2C3=O)cc1OC
survivor count (dose: 100.0 mg/kg/injection, schedule: Q01DX009 (ip), vehicle: other): 6 of 6

COc1cc(Cc2nnc(N)[nH]c2=O)cc(OC)c1OC
survivor count [9]: 6 of 6
survivor count [6]: 5 of 6

CC1(C)CC2C=C(C=O)C3(C=O)CC3(C)C2C1 (stereo unspecified)
survivor count (dose: 12.5 mg/kg/injection, schedule: Q01DX009 (ip), vehicle: Klucel (hydroxypropylcellulose) (HPC)): 5 of 6
survivor count (dose: 25.0 mg/kg/injection, schedule: Q01DX009 (ip), vehicle: Klucel (hydroxypropylcellulose) (HPC)): 5 of 6
survivor count (dose: 50.0 mg/kg/injection, schedule: Q01DX009 (ip), vehicle: Klucel (hydroxypropylcellulose) (HPC)): 1 of 6
survivor count (dose: 100.0 mg/kg/injection, schedule: Q01DX009 (ip), vehicle: Klucel (hydroxypropylcellulose) (HPC)): 3 of 6

COc1ccc(C(CC(=O)N(CCCl)CCCl)CC(=O)N(CCCl)CCCl)cc1
survivor count (dose: 400.0 mg/kg/injection, schedule: Q01DX001 (ip), vehicle: suspension in saline): 0 of 6

COCN1C(=O)N2C(c3ccccc3)(c3ccccc3)C(C(=O)OC)=C(C(=O)OC)P12(c1ccccc1)c1ccccc1
survivor count (dose: 120.0 mg/kg/injection, schedule: Q01DX005 (ip), vehicle: Klucel (hydroxypropylcellulose) (HPC)): 6 of 6

CC(=O)OC/C=C(\C)CC(/C=C(C)/C=C/C1=C(C)CCCC1(C)C)S(=O)(=O)c1ccccc1 (stereo unspecified)
survivor count [7]: 6 of 6

CCOC(=O)C(C)(NC(=O)c1ccccc1)C(=O)OCC
survivor count (dose: 120.0 mg/kg/injection, schedule: Q01DX005 (ip), vehicle: saline): 6 of 6

COC(=O)c1nc(N)nc(C(=O)OC)c1C(=O)c1ccc2ccccc2c1
survivor count (dose: 240.0 mg/kg/injection, schedule: Q01DX005 (ip), vehicle: Klucel (hydroxypropylcellulose) (HPC)): 0 of 6

NCC[Se][Se]CCN
survivor count (dose: 12.5 mg/kg/injection, schedule: Q01DX009 (ip), vehicle: saline with Tween-80): 3 of 6
survivor count (dose: 12.5 mg/kg/injection, schedule: Q01DX009 (ip), vehicle: saline): 1 of 6
survivor count [9]: 0 of 6
survivor count [6]: 0 of 6
survivor count [7]: 0 of 6
survivor count [8]: 0 of 6

C=CC1(O)CCCCC1
survivor count [10]: 2 of 6

C#CCOC(=O)c1ccccc1
survivor count (dose: 100.0 mg/kg/injection, schedule: Q01DX005 (ip), vehicle: saline with Tween-80): 3 of 6
survivor count (dose: 200.0 mg/kg/injection, schedule: Q01DX005 (ip), vehicle: saline with Tween-80): 0 of 6

O=c1[nH]c(CN2CCCCC2)ccc1O
survivor count [10]: 0 of 6

COc1ccc2sc3cc(Cl)ccc3c(=O)c2c1
survivor count (dose: 7.5 mg/kg/injection, schedule: Q01DX005 (ip), vehicle: saline with Tween-80): 6 of 6
survivor count [3]: 6 of 6
survivor count [4]: 6 of 6
survivor count [5]: 6 of 6
survivor count [1]: 6 of 6

N#C[C@@H]1C2C=CC(CC2)[C@H]1C#N
survivor count (dose: 5.0 mg/kg/injection, schedule: Q01DX009 (ip), vehicle: saline with Tween-80): 5 of 6
survivor count (dose: 100.0 mg/kg/injection, schedule: Q04DX003 (ip), vehicle: saline with Tween-80): 0 of 6
survivor count (dose: 200.0 mg/kg/injection, schedule: Q04DX003 (ip), vehicle: saline with Tween-80): 0 of 6
survivor count [2]: 0 of 6

Oc1ccccc1-c1cc(-c2ccccc2)nc(NCCCCNc2nc(-c3ccccc3)cc(-c3ccccc3O)n2)n1
survivor count (dose: 50.0 mg/kg/injection, schedule: Q01DX005 (ip), vehicle: Klucel (hydroxypropylcellulose) (HPC)): 6 of 6
survivor count (dose: 200.0 mg/kg/injection, schedule: Q01DX005 (ip), vehicle: Klucel (hydroxypropylcellulose) (HPC)): 0 of 6

O=c1ccc2nccc3c4cc(O)ccc4n1c23
survivor count (dose: 0.44 mg/kg/injection, schedule: Q01DX009 (ip), vehicle: saline with Tween-80): 3 of 4
survivor count (dose: 0.88 mg/kg/injection, schedule: Q01DX009 (ip), vehicle: saline with Tween-80): 4 of 4
survivor count (dose: 3.5 mg/kg/injection, schedule: Q01DX009 (ip), vehicle: saline with Tween-80): 4 of 4

CNc1cccc(NC)c1
survivor count (dose: 50.0 mg/kg/injection, schedule: Q01DX009 (ip), vehicle: water): 1 of 6
survivor count (dose: 100.0 mg/kg/injection, schedule: Q01DX009 (ip), vehicle: water): 0 of 6
survivor count (dose: 200.0 mg/kg/injection, schedule: Q01DX009 (ip), vehicle: water): 0 of 6
survivor count (dose: 400.0 mg/kg/injection, schedule: Q01DX009 (ip), vehicle: water): 0 of 6
